Paper PMC12794176
Results are given in words; binding and its absence hold for the method and conditions named. In cells and extracts the contact can be indirect. Some binding calls cover weakened binding; strength is not graded here.

Target: Lymphocyte activation gene 3 (LAG3) (UniProt P18627)
Test: split reporter; bimolecular fluorescence complementation in cells, read by fluorescence imaging; cells and split fragments not stated in the main text

binding: binds
B1: Lymphocyte activation gene 3 (LAG3) (receptor, UniProt P18627 23-525)
chain: LQPGAEVPVVWAQEGAPAQLPCSPTIPLQDLSLLRRAGVTWQHQPDSGPPAAAPGHPLAPGPHPAAPSSWGPRPRRYTVLSVGPGGLRSGRLPLQPRVQLDERGRQRGDFSLWLRPARRADAGEYRAAVHLRDRALSCRLRLRLGQASMTASPPGSLRASDWVILNCSFSRPDRPASVHWFRNRGQGRVPVRESPHHHLAESFLFLPQVSPMDSGPWGCILTYRDGFNVSIMYNLTVLGLEPPTPLTVYAGAGSRVGLPCRLPAGVGTRSFLTAKWTPPGGGPDLLVTGDNGDFTLRLEDVSQAQAGTYTCHIHLQEQQLNATVTLAIITVTPKSFGSPGSLGKLLCEVTPVSGQERFVWSSLDTPSQRSFSGPWLEAQEAQLLSQPWQCQLYQGERLLGAAVYFTELSSPGAQRSGRAPGALPAGHLLLFLILGVLSLLLLVTGAFGFHLWRRQWRPRRFSALEQGIHPPQAQSKIEELEQEPEPEPEPEPEPEPEPEPEQL
